According to PubChem BioAssay AID2685 (National Center for Advancing Translational Sciences (NCATS), 2010):
Some of the results follow. Shown are side measurements of this screen, not its main read-out; they come without a call. Compounds called inactive in the main read-out are mostly missing here. The note in brackets gives the kind of curve behind each potency; many fits are weak.

Test: qHTS Assay for Lipid Storage Modulators in Drosophila S3 Cells;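 for cell number change: cells counted by Cell Tracker Red CMTPX staining in the red channel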
Details: BODIPY lipid droplet fluorescence, 18-24 h; for cell number change: measured here: cell count max response, cells fed with added oleic acid
Procedure, shortened: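 Drosophila S3 cells loaded with oleic acid (400 uM, as added) and compounds at several concentrations; lipid droplets imaged by 488-nm laser-scanning cytometry, 500–530 nm intensity and object ratio to cell channel. Percent activity normalized to 20 uM Triacsin C.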

[1] = measured here: cell number channel AC50, cells fed with added oleic acid
[2] = measured here: lipid fluorescence (Fed channel) AC50, cells fed with added oleic acid

Compound	cell number change [%]	AC50 [1]	AC50 [2]
Fc1ccc(/C=N/N2CCOCC2)c(F)c1	84.3	29.1 µM [rising, partial curve, poor fit]	
CCSc1nnc(NC(=O)NC(CC)(C(F)(F)F)C(F)(F)F)s1	-70.7	20.6 µM [falling, partial curve]	23.1 µM [falling, single point]
Cc1c(C(=O)NCCSCc2ccco2)cccc1[N+](=O)[O-]	-1.73		
CC1=C(C(=O)Nc2ccccc2)C(c2cccs2)C(C#N)=C(SCC#N)N1 (stereo unspecified)	44.7	29.1 µM [rising, single point]	29.1 µM [rising, partial curve, poor fit]
O=C(NC(=S)Nc1ccc(CN2CCOCC2)cc1)c1ccc(-c2cccc(Cl)c2)o1	15.2		
CN(CCOc1ccc(Cl)cc1)CC(=O)Nc1ccc(OC(F)(F)F)cc1	-54.4	29.1 µM [falling, single point]	16.4 µM [falling, single point]
Cc1cc(C)c(C#N)c(SCc2nc3ccccc3[nH]2)n1		0.164 µM [rising, full curve]	0.092 µM [rising, full curve, poor fit]
CCCCC(=O)Nc1ccc2c(c1)nc1n2CCSC1	17.2		1.46 µM [rising, partial curve]
COc1ccc(-c2sc3ccccc3c2C#CCCO)cc1	-10.8		
CN(CC(=O)Nc1ccccc1Cl)C(=O)C1CSC2(C)CCC(=O)N12 (stereo unspecified)	-37.2	0.82 µM [falling, full curve]	0.58 µM [falling, full curve]
O=C(O)Cn1cc(C(=O)c2cccs2)c2ccccc21	7.26	6.51 µM [falling, single point]	
CC(Sc1n[nH]c(N)n1)C(=O)NC1CCCCC1C (stereo unspecified)	21		29.1 µM [rising, single point]
C/C(=N\Nc1nc2ccccc2[nH]1)c1cc2ccccc2o1	-68.2	16.4 µM [falling, partial curve]	16.4 µM [falling, partial curve]
COc1ccc(NS(=O)(=O)c2ccc(NS(=O)(=O)c3cccc(C(=O)O)c3)cc2)cc1	-5.13		0.116 µM [falling, single point]
CC(C)c1ccc(S(=O)(=O)N2CCN(C(=O)C3CCCCC3)CC2)cc1	3.28		6.51 µM [falling, single point]
Cc1cc(OCC(O)CN2CCc3ccccc3C2)cc(C(C)C)c1 (stereo unspecified)	-65.7	18.4 µM [falling, partial curve]	18.4 µM [falling, partial curve]
CCN(C(=O)CSc1cc(C)c2ccccc2n1)c1c(N)n(Cc2ccccc2)c(=O)[nH]c1=O	-13.9		8.2 µM [falling, partial curve]
O=C(CNC(=O)C1CCCCC1)OCc1cc(=O)oc2ccc3ccccc3c12	-7.81		
NS(=O)(=O)c1ccc(CCNC(=O)c2cc(-c3ccccc3)nc3ccccc23)cc1	-26.8	4.11 µM [rising, partial curve]	4.61 µM [rising, single point]

Compound	cell number change [%]	AC50 [1]	AC50 [2]
COc1ccc2[nH]c3c(NCCC4=CCCCC4)ncnc3c2c1	-51.7	13 µM [falling, partial curve]	9.2 µM [falling, partial curve]
CC(C)Nc1nc(NC(C)C)nc(OCCOC(=O)c2ccccc2)n1	-16.9		4.61 µM [rising, single point]
COc1ccc(CNC(=O)/C=C/c2ccc(OCCCF)cc2)cc1OC	-43.4	7.31 µM [falling, partial curve]	13 µM [falling, partial curve]
CN(C)C(C)(C)C#CC(O)(c1ccccc1)c1ccccc1	17.5		
C#CCOCCOCCOCCNc1nc(N2CCN(C(=O)Cn3cc(CC(C)O)nn3)CC2)nc(N2CCN(C(=O)Cn3cc(CC(C)O)nn3)CC2)n1 (stereo unspecified)	-27.2		29.1 µM [falling, single point]
CC(=O)N1CCN(c2ccc(NC(=S)NC(=O)c3ccccc3)cc2)CC1	85.8	29.1 µM [rising, single point]	23.1 µM [rising, single point]
CC(=O)c1cc2c(cc1NS(=O)(=O)c1ccccc1F)OCO2	41.2	8.2 µM [rising, partial curve]	29.1 µM [rising, single point]
O=C(COC(=O)c1ccc[nH]c1=O)NCCc1ccc(F)cc1	-38.1	18.4 µM [falling, partial curve, poor fit]	8.2 µM [falling, partial curve]
Cc1ccccc1Nc1nc(N)nc(CSc2nnc(C)n2C)n1	55.1	29.1 µM [rising, partial curve, poor fit]	4.61 µM [falling, single point]
COc1ccc(NC(=O)CN(C)C(=O)Cc2ccc(-c3ccccc3)cc2)cc1	-22.2		29.1 µM [falling, single point]
O=C(NCC1CC1)c1onc(CSc2nc3ccccc3[nH]2)c1C(=O)NCC1CC1			23.1 µM [falling, single point]
CC(=O)Nc1ccc(-c2nnc(SCc3ccc(C)cc3)n2C)cc1	81.4	7.31 µM [rising, partial curve]	
COCCNc1nc(-n2nc(C)cc2C)nc2sc3c(c12)CCCC3	-13.6		
CN(CC(=O)Nc1ccc(N2CCOCC2)cc1)CC(=O)Nc1ccc(Cl)cc1[N+](=O)[O-]	0.809		29.1 µM [rising, single point]
Cc1cc(C)nc(SCCn2c(N3CC(C)OC(C)C3)nc3c2c(=O)n(C)c(=O)n3C)n1 (stereo unspecified)	-21.8	0.092 µM [falling, full curve, poor fit]	
COc1cc(NC(=S)Nc2cccnc2)cc(OC)c1	13.3		3.26 µM [rising, full curve, poor fit]
COc1ccc(CN(C)c2nc(-c3cccnc3)nc3ccccc23)cc1OC		0.092 µM [rising, full curve, poor fit]	
Nc1c(-c2cccc([N+](=O)[O-])c2)nc2ccccn12	-2.07		10.3 µM [rising, partial curve, poor fit]
Cc1cc(C)cc(-n2ncc3c2CCCC3NC(=O)c2csnn2)c1 (stereo unspecified)	-68.8	0.1 µM [falling, full curve]	0.1 µM [falling, full curve]

Of the compounds above, these have a COOH group.
Compound	cell number change [%]	AC50 [1]	AC50 [2]
O=C(O)Cn1cc(C(=O)c2cccs2)c2ccccc21	7.26	6.51 µM [falling, single point]	
COc1ccc(NS(=O)(=O)c2ccc(NS(=O)(=O)c3cccc(C(=O)O)c3)cc2)cc1	-5.13		0.116 µM [falling, single point]

Later entries

Compound	cell number change [%]	AC50 [1]	AC50 [2]
O=C(Cc1noc2ccccc12)NNC(=S)Nc1ccc(Cl)cc1	12.7		
CN(Cc1ccccc1)S(=O)(=O)c1ccc(NC(=S)NC(=O)C(C)(C)C)cc1	146	18.4 µM [rising, single point]	2.59 µM [rising, full curve, poor fit]
N#CC1=C(N)C(C#N)(C#N)[C@H](c2cccnc2)[C@H]2CN(C(=O)OCc3ccccc3)CC=C12	3.58		
CCOC(=O)C1C(=O)C=C(c2ccc([N+](=O)[O-])cc2)CC1c1ccccc1 (stereo unspecified)			6.51 µM [rising, single point]
COC(=O)c1ccccc1NC(=O)Cn1cc(Br)cn1	1.87		29.1 µM [rising, partial curve]
O=C(CSc1nnc(NC(=O)c2c(F)cccc2F)s1)NCC1CCCO1 (stereo unspecified)	-14.2	1.46 µM [falling, partial curve, poor fit]	0.259 µM [falling, full curve, poor fit]
N#C/C(=C\c1c(F)cccc1Cl)S(=O)(=O)c1ccccn1	1.45		0.00461 µM [falling, full curve, poor fit]
CC1CCc2ccccc2N1C(N)=Nc1ccccc1 (stereo unspecified)	-52.4	1.03 µM [falling, full curve, poor fit]	0.92 µM [falling, full curve, poor fit]
CCCCOc1ccc(N(CC(=O)NC(C)(C)CC)C(=O)CCC(=O)Nc2ccccn2)cc1	-5.11		0.461 µM [falling, full curve, poor fit]
COc1cccc(OC)c1C(=O)OCC(=O)Nc1cccnc1Cl		0.411 µM [rising, full curve]	0.411 µM [rising, full curve]
COc1ccc(NC(=O)c2ccc(S(=O)(=O)N(C)C)cc2)cc1OC	5.24		
Nc1ccc(S(=O)(=O)Nc2nccc(/C=C/c3ccc([N+](=O)[O-])cc3)n2)cc1	5.13		0.291 µM [rising, partial curve, poor fit]
Cc1ccccc1CSc1nc2c(c(=O)[nH]1)CCCC2		4.11 µM [falling, single point]	29.1 µM [rising, single point]
COc1ccccc1N1CCN(C2CCCN(C(=O)c3snnc3C)C2)CC1 (stereo unspecified)	5.9		4.11 µM [rising, full curve]
COc1ccc(CCn2c(=N)c(S(=O)(=O)c3ccccc3)cc3c(=O)n4ccccc4nc32)cc1	8.36		6.51 µM [falling, single point]
COc1ccccc1N1CCN(C(=O)c2cc(-c3ccc(F)cc3)on2)CC1	7.21		
Cc1cc(Br)ccc1NC(=O)CN(C)C(=O)Cn1c(=O)cnc2ccccc21	14.6		0.517 µM [rising, single point]
CS(=O)(=O)c1ccccc1C(=O)N1CCN(Cc2ccccc2)CC1	22.2		29.1 µM [rising, single point]

Single values from the entries so far:
cell number change [%] with `COC(=O)c1ccccc1NC(=O)Cn1cc(Br)cn1` reads 1.87
cell number change [%] with `O=C(COC(=O)c1ccc[nH]c1=O)NCCc1ccc(F)cc1` reads -38.1
